Assay [1] addresses His-tagged mitochondrial Hsp70 (mtHsp70His) (S. cerevisiae) (UniProt P0CS90). Nature of the assay: affinity purification with mass spectrometry; mtHsp70His purified on Ni-NTA agarose from digitonin-lysed mitochondria of SILAC-labelled ρ+ and ρ0 cells, in the absence of ATP; elution fractions mixed; ratios ρ0 versus ρ+.
For assay [2], the target named is mitochondrial Hsp70 (mtHsp70), wild type (S. cerevisiae (endogenous in yeast mitochondria)) (UniProt P0CS90). Nature of the assay: affinity purification with mass spectrometry; Mge1His coupled to Ni-NTA agarose captures mtHsp70 with its bound proteins from digitonin lysates of SILAC-labelled wild-type and ρ0 mitochondria, in the absence of ATP.

Amino acid sequences for entries named in this document (tags omitted). Residues count along the entry.
UniProt P0CS90, residues 24-654: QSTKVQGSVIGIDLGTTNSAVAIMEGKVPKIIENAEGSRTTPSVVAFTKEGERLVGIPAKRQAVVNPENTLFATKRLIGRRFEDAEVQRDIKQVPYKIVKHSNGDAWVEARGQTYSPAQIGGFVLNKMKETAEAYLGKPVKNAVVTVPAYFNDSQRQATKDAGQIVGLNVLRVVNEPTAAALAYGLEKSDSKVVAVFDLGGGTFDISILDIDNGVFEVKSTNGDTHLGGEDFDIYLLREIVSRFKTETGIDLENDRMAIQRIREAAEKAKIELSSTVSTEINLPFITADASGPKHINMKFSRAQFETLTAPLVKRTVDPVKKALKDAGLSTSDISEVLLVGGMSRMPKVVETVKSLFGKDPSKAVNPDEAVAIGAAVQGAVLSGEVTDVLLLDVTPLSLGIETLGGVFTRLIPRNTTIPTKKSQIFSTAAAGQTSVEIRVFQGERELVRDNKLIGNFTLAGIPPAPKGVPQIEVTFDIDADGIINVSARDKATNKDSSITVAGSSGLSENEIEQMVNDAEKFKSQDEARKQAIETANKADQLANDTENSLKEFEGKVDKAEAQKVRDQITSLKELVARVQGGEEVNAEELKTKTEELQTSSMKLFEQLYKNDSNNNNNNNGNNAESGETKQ

These are yes or no findings as the source states them, for the method shown. In cells and extracts the contact can be indirect. These calls come from enrichment with a bait or labelling near it, and not all partners need be listed. For some assays here: A no says only that the protein was not detected with the bait. For some assays here: Tags and fused reporters may be left off the sequences shown.

B1: Atp15 (protein, UniProt P21306 1-62)
chain: MSAWRKAGISYAAYLNVAAQAIRSSLKTELQTASVLNRSQTDAFYTQYKNGTAASEPTPITK
As to B1, the binding result in assay [1] was “binds”.

B2: Lys2 (protein, UniProt P07702 1-1392)
chain: MTNEKVWIEKLDNPTLSVLPHDFLRPQQEPYTKQATYSLQLPQLDVPHDSFSNKYAVALSVWAALIYRVTGDDDIVLYIANNKILRFNIQPTWSFNELYSTINNELNKLNSIEANFSFDELAEKIQSCQDLERTPQLFRLAFLENQDFKLDEFKHHLVDFALNLDTSNNAHVLNLIYNSLLYSNERVTIVADQFTQYLTAALSDPSNCITKISLITASSKDSLPDPTKNLGWCDFVGCIHDIFQDNAEAFPERTCVVETPTLNSDKSRSFTYRDINRTSNIVAHYLIKTGIKRGDVVMIYSSRGVDLMVCVMGVLKAGATFSVIDPAYPPARQTIYLGVAKPRGLIVIRAAGQLDQLVEDYINDELEIVSRINSIAIQENGTIEGGKLDNGEDVLAPYDHYKDTRTGVVVGPDSNPTLSFTSGSEGIPKGVLGRHFSLAYYFNWMSKRFNLTENDKFTMLSGIAHDPIQRDMFTPLFLGAQLYVPTQDDIGTPGRLAEWMSKYGCTVTHLTPAMGQLLTAQATTPFPKLHHAFFVGDILTKRDCLRLQTLAENCRIVNMYGTTETQRAVSYFEVKSKNDDPNFLKKLKDVMPAGKGMLNVQLLVVNRNDRTQICGIGEIGEIYVRAGGLAEGYRGLPELNKEKFVNNWFVEKDHWNYLDKDNGEPWRQFWLGPRDRLYRTGDLGRYLPNGDCECCGRADDQVKIRGFRIELGEIDTHISQHPLVRENITLVRKNADNEPTLITFMVPRFDKPDDLSKFQSDVPKEVETDPIVKGLIGYHLLSKDIRTFLKKRLASYAMPSLIVVMDKLPLNPNGKVDKPKLQFPTPKQLNLVAENTVSETDDSQFTNVEREVRDLWLSILPTKPASVSPDDSFFDLGGHSILATKMIFTLKKKLQVDLPLGTIFKYPTIKAFAAEIDRIKSSGGSSQGEVVENVTANYAEDAKKLVETLPSSYPSREYFVEPNSAEGKTTINVFVTGVTGFLGSYILADLLGRSPKNYSFKVFAHVRAKDEEAAFARLQKAGITYGTWNEKFASNIKVVLGDLSKSQFGLSDEKWMDLANTVDIIIHNGALVHWVYPYAKLRDPNVISTINVMSLAAVGKPKFFDFVSSTSTLDTEYYFNLSDKLVSEGKPGILESDDLMNSASGLTGGYGQSKWAAEYIIRRAGERGLRGCIVRPGYVTGASANGSSNTDDFLLRFLKGSVQLGKIPDIENSVNMVPVDHVARVVVATSLNPPKENELAVAQVTGHPRILFKDYLYTLHDYGYDVEIESYSKWKKSLEASVIDRNEENALYPLLHMVLDNLPESTKAPELDDRNAVASLKKDTAWTGVDWSNGIGVTPEEVGIYIAFLNKVGFLPPPTHNDKLPLPSIELTQAQISLVASGAGARGSSAAA
B2: the binding entry in assay [1] is on record as “no binding”.

B3: Atp11 (assembly factor) (protein, UniProt P32453 41-318)
chain: QKYRKKLLEEAQKQGFNSIEELKNHLKETIESKKREFNKIDPLKELEDYQQKTQMENNNSKHLMTKSRSPLDPSAPKVPFKTLDSFLDVGKLKDLSKQEVEFLWRARWAQKDNTLCAVIPVSVYDKMMANARNNPIFVLPLPRQVQSEDAKPNEEQGMELHYIQWQFVGPQTTHCMMTSLAEYKLHQEFARPHTTLQFHSDLVKDKGIVFMNGHVEPDTNVNVQDAQLLLLNVQRFYGAMGEETPVAKQRVQLLRDFSKASPGFTVEKLISLSQSMEN
Consider B3, for which the binding entry in assay [2] and in assay [1] was “binds” throughout.

B4: Atp12 (assembly factor) (protein, UniProt P22135 33-325)
chain: DNTIENNTPTETNRLSKTSQKFWEKVSLNRDVEKGKIALQLDGRTIKTPLGNGIIVDNAKSLLAYLLKLEWSSLSSLSIKTHSLPLTSLVARCIDLQMTNEPGCDPQLVAKIGGNSDVIKNQLLRYLDTDTLLVFSPMNEFEGRLRNAQNELYIPIIKGMEEFLRNFSSESNIRLQILDADIHGLRGNQQSDIVKNAAKKYMSSLSPWDLAILEKTVLTTKSFICGVLLLENKKDTANLIPALKTDMDNIVRAATLETIFQVEKWGEVEDTHDVDKRDIRRKIHTAAIAAFKQ
With B4, the binding entry in assay [2] and in assay [1] was “binds” in each case.

B5: Atp4 (subunit b of the ATP synthase) (protein, UniProt P05626 36-244)
chain: MSSTPEKQTDPKAKANSIINAIPGNNILTKTGVLGTSAAAVIYAISNELYVINDESILLLTFLGFTGLVAKYLAPAYKDFADARMKKVSDVLNASRNKHVEAVKDRIDSVSQLQNVAETTKVLFDVSKETVELESEAFELKQKVELAHEAKAVLDSWVRYEASLRQLEQRQLAKSVISRVQSELGNPKFQEKVLQQSISEIEQLLSKLK
On to B5, for which, in assay [1], the binding entry is listed as “binds”.

B6: Atp3 (subunit γ of the ATP synthase) (protein, UniProt P38077 34-311)
chain: ATLKEVEMRLKSIKNIEKITKTMKIVASTRLSKAEKAKISAKKMDEAEQLFYKNAETKNLDVEATETGAPKELIVAITSDKGLCGSIHSQLAKAVRRHLNDQPNADIVTIGDKIKMQLLRTHPNNIKLSINGIGKDAPTFQESALIADKLLSVMKAGTYPKISIFYNDPVSSLSFEPSEKPIFNAKTIEQSPSFGKFEIDTDANVPRDLFEYTLANQMLTAMAQGYAAEISARRNAMDNASKNAGDMINRYSILYNRTRQAVITNELVDIITGASSLG
Turning to B6, the binding entry in assay [1] is recorded as “binds”.

B7: Ccp1 (protein, UniProt P00431 68-361)
chain: TTPLVHVASVEKGRSYEDFQKVYNAIALKLREDDEYDNYIGYGPVLVRLAWHTSGTWDKHDNTGGSYGGTYRFKKEFNDPSNAGLQNGFKFLEPIHKEFPWISSGDLFSLGGVTAVQEMQGPKIPWRCGRVDTPEDTTPDNGRLPDADKDADYVRTFFQRLNMNDREVVALMGAHALGKTHLKNSGYEGPWGAANNVFTNEFYLNLLNEDWKLEKNDANNEQWDSKSGYMMLPTDYSLIQDPKYLSIVKEYANDQDKFFKDFSKAFEKLLENGITFPKDAPSPFIFKTLEEQGL
For the molecule B7, in assay [1], the binding entry is “no binding”.

B8: Atp7 (subunit d of the ATP synthase) (protein, UniProt P30902 1-174)
chain: MSLAKSAANKLDWAKVISSLRITGSTATQLSSFKKRNDEARRQLLELQSQPTEVDFSHYRSVLKNTSVIDKIESYVKQYKPVKIDASKQLQVIESFEKHAMTNAKETESLVSKELKDLQSTLDNIQSARPFDELTVDDLTKIKPEIDAKVEEMVKKGKWDVPGYKDRFGNLNVM
Consider B8, for which the binding entry in assay [1] is on record as “binds”.

B9: Atp5 (oligomycin sensitivity conferring protein, OSCP) (protein, UniProt P09457 18-212)
chain: ASKAAAPPPVRLFGVEGTYATALYQAAAKNSSIDAAFQSLQKVESTVKKNPKLGHLLLNPALSLKDRNSVIDAIVETHKNLDGYVVNLLKVLSENNRLGCFEKIASDFGVLNDAHNGLLKGTVTSAEPLDPKSFKRIEKALSASKLVGQGKSLKLENVVKPEIKGGLIVELGDKTVDLSISTKIQKLNKVLEDSI
Turning to B9, the binding result in assay [1] is “binds”.

These data come from PMC9810599.
